Data source: PubChem BioAssay AID1671195 (Yale University, 2021)
Screen: 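Genes whose knockdown alters LDL uptake in liver cancer cells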 (primary screen). Cell system: human Huh7 hepatoma cells. Reagent: siRNA pool against human genes, 18 nM. Duration: about 2 to 2.5 days of knockdown, then 8 h LDL uptake. Challenge: DiI-labelled LDL at 30 µg/ml for 8 h, in lipoprotein-deficient serum medium. Detection: 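Fluorescent LDL signal imaged in cells, scaled to the plate median, robust z-score for each replicate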. Scale: robust z-score: higher = more LDL uptake after knockdown. Rule for the call: 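Active when two or more replicates show a robust z-score above 2 or below -2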.
The deposit covers about 22,000 reagents; below is an unselected part. Over the whole deposit, about 1,510 (6.9%) are marked active. 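Active includes knockdowns raising or lowering LDL uptake; positive z-scores mean more uptake, negative mean less.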 Entries without a mark were called inactive.

| gene symbol | robust z-score, replicate 1 | robust z-score, replicate 2 | robust z-score, replicate 3 |
| --- | --- | --- | --- |
| LOC390564 (retired record) | 1.97 (active) | 2.13 | 2.46 |
| CCL5 | 1.38 | 1.2 | 1.3 |
| OR5AN1 | 0.126 | -0.132 | 0.065 |
| LOC388617 (retired record) | 0.157 | 0.724 | 0.733 |
| LPCAT1 | -0.809 | -1.12 | -1.12 |
| LOC285703 (retired record) | -1.48 | -1.36 | -1.32 |
| LOC391362 (retired record) | 0.699 | -0.252 | -0.344 |
| CAMK2G | 0.446 | -0.0955 | 2 |
| BZW1P2 | -0.174 | -1.2 | -0.699 |
| CEP83 | -0.262 | -0.873 | -0.215 |
| SIGLEC6 | 1.14 | 1.2 | 2.97 |
| PFN4 | 0.157 | 0.257 | 0.374 |
| SREK1 | 0.399 | -0.135 | 0.636 |
| EEF1AKMT3 | -0.00634 | 0.639 | 0.26 |
| LPCAT4 | -1.32 | -1 | -0.707 |
| TCHHL1 | -0.704 | 0.00425 | -0.142 |
| ALPK3 | -0.419 | -0.177 | -0.459 |
| NUDCD3 | -0.2 | 0.824 | -0.851 |
| FAM168A | 0.405 | -0.847 | -0.272 |
| ARPIN | 0.0343 | 0.283 | -0.0411 |
| ARL2BP | 1.34 | 1.58 | 1.4 |
| ITSN1 | -1.3 | -1.24 | -1.3 |
| TMEM234 | -1.09 | 0.0413 | -1.44 |
| SH3RF3 | 0.153 | 0.306 | 0.588 |
| TLR10 | -0.369 | -0.816 | -0.633 |
| TMEM26 | -1.16 | -0.984 | -1.07 |
| IDE | 0.633 | -0.14 | -0.0163 |
| CLEC2D | -0.235 | -1.61 | -0.792 |
| NOPCHAP1 | 0.00102 | -0.111 | -1.14 |
| LINC02667 | 0.329 | 0.235 | -0.476 |
| LINC01801 | -0.0185 | 0.084 | 0.327 |
| PPP6C | 1.83 | 0.358 | 1.23 |
| TTC4 | 1.17 | -0.97 | -0.144 |
| ZNF776 | -0.19 | -0.684 | -0.82 |
| SYPL2 | 0.0145 | 0.0536 | -0.366 |
| MARCHF8 | -1.02 | 0.329 | -0.474 |
| PLEKHS1 | 0.78 | 0.983 | 0.673 |
| SCAF4 | 1.22 | 0.865 | 0.661 |
| SLC38A12 | -0.174 | 0.00911 | -0.219 |
| PSIP1 | -0.032 | -0.116 | 0.244 |
| ERICH3 | 0.608 | 0.37 | 0.922 |
| LOC400263 (retired record) | -0.851 | -0.737 | -0.838 |
| TMED8 | 1.36 | 1.46 | 1.34 |
| SCT | 0.944 | -0.543 | -0.422 |
| MRPL22 | 0.541 | 0.669 | 1.25 |
| LOC440066 (retired record) | -0.776 | -0.329 | -0.418 |
| MFSD1 | 0.141 | -0.39 | 0.67 |
| KIAA0319 | 0.761 | 0.98 | 0.0224 |
| LOC387886 (retired record) | 0.171 | 0.0498 | 0.209 |
| ZNF285CP | -1.28 | -1.52 | -1.52 |
| POLI | 0.868 | 0.875 | 1.41 |
| ZNF135 | -1.51 | -1.37 | -1.17 |
| HHEX | -0.847 | -0.0629 | 0.291 |
| ACTR2 | -0.611 | -0.814 | 0.19 |
| CNIH3 | 0.884 | 1.45 | 1.1 |
| WARS1 | -0.157 | -0.0888 | 0.545 |
| PUS1 | 0.383 | 0.365 | -0.0331 |
| PNMA2 | 1.59 | 1.81 | 2.38 |
| ALX3 | -0.109 | -0.72 | -0.104 |
| LOC440377 (retired record) | 1.79 | 1.95 | 1.57 |
| LGALS12 | 1.11 | 1.12 | 0.775 |
| PHACTR1 | -0.584 | -0.647 | -0.359 |
| DCLK2 | 2.44 (active) | 1.4 | 2.01 |
| LSM12 | 2.16 (active) | 2.9 | 2.64 |
| NYX | -0.476 | -0.902 | -0.618 |
| LOC389029 (retired record) | -0.718 | -1.17 | -1.05 |
| LRPPRC | -0.175 | -0.154 | 0.567 |
| PPFIA2 | 1.89 | 1.54 | 2.02 |

Called active, among the entries above:
| gene symbol | robust z-score, replicate 1 | robust z-score, replicate 2 | robust z-score, replicate 3 |
| --- | --- | --- | --- |
| LOC390564 (retired record) | 1.97 (active) | 2.13 | 2.46 |
| DCLK2 | 2.44 (active) | 1.4 | 2.01 |
| LSM12 | 2.16 (active) | 2.9 | 2.64 |
